Laboratory results: PubChem BioAssay AID504774 (Drosophila RNAi Screening Center, 2011)
Screen: 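Knock-downs that shift viability of MMS-exposed cells relative to untreated ones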 (primary screen). Cell system: Drosophila Kc167 cells. Knock-down reagent: long dsRNA against Drosophila genes, about 0.25 µg dsRNA per well. Timing: about 6 days: 3 days knock-down, then 3 days with or without MMS. Treatment: methyl methanesulphonate 0.004% (w/v) for 3 days after knock-down. Read-out: 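Viability in wells given MMS, read as ATP luminescence, normalised by quantiles plate by plate and averaged across replicates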. Direction: mean viability with MMS and viability with MMS: higher = more surviving cells after MMS.
The deposit covers about 23,000 reagents; shown is an unselected part of those that have a named target and a result. 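Values are quantile-normalised luminescence on an arbitrary scale; higher means more cells surviving MMS.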 A plus sign joins genes that one reagent is predicted to hit.

gene knocked down | dsRNA | mean viability with MMS | viability with MMS, replicate 1 | viability with MMS, replicate 2
CG34423 + Mthfs | DRSC04088 | 3.77e6 | 4.31e6 | 4.17e6
Syt7 | DRSC17130 | 3.72e6 | 4.29e6 | 4.12e6
Syt7 | DRSC17159 | 3.55e6 | 4.03e6 | 4.04e6
CG12746 | DRSC12218 | 3.83e6 | 4.26e6 | 4.42e6
Sgt1 | DRSC16519 | 3.46e6 | 3.93e6 | 3.93e6
Idgf4 | DRSC18675 | 3.52e6 | 4.04e6 | 3.93e6
aly | DRSC08707 | 3.61e6 | 4.06e6 | 4.10e6
aly | DRSC21784 | 3.29e6 | 3.83e6 | 3.78e6
Mur29B | DRSC01018 | 3.87e6 | 4.29e6 | 4.28e6
Mur29B | DRSC02376 | 3.79e6 | 4.24e6 | 4.38e6
CG34461 | DRSC10767 | 3.48e6 | 3.84e6 | 4.06e6
CG13066 | DRSC09949 | 3.56e6 | 3.98e6 | 4.09e6
CG8281 | DRSC10976 | 3.52e6 | 3.95e6 | 4.05e6
Npc2f | DRSC15980 | 3.68e6 | 4.12e6 | 4.16e6
CG5906 | DRSC10557 | 3.44e6 | 3.97e6 | 3.82e6
CG30105 | DRSC05668 | 3.47e6 | 3.95e6 | 3.94e6
CG1677 | DRSC18116 | 3.19e6 | 3.64e6 | 3.55e6
Hydr1 | DRSC07063 | 1.79e6 | 4.00e6 | 3.94e6
Sf3b3 | DRSC08370 | 3.05e6 | 3.62e6 | 3.64e6
CG42322 | DRSC15112 | 3.62e6 | 4.09e6 | 4.10e6
CG42322 | DRSC15113 | 3.40e6 | 3.74e6 | 4.01e6
CG42322 | DRSC15114 | 3.21e6 | 3.66e6 | 3.74e6
CG4622 | DRSC04479 | 3.50e6 | 3.79e6 | 3.81e6
CG15040 | DRSC19616 | 1.97e6 | 4.14e6 | 4.08e6
CG15040 | DRSC21482 | 3.47e6 | 3.98e6 | 3.94e6
oaf | DRSC00831 | 3.52e6 | 3.99e6 | 3.99e6
Ugt36E1 | DRSC02599 | 3.43e6 | 4.01e6 | 3.71e6
Send2 | DRSC01906 | 3.59e6 | 4.10e6 | 4.03e6
CG43347 | DRSC17982 | 3.42e6 | 3.84e6 | 3.93e6
CG43347 | DRSC18446 | 3.65e6 | 4.17e6 | 4.07e6
CG43347 | DRSC22656 | 2.88e6 | 3.69e6 | 3.67e6
CG43347 | DRSC22682 | 3.36e6 | 3.84e6 | 3.92e6
CG43347 | DRSC23007 | 3.55e6 | 4.23e6 | 3.86e6
CG43347 | DRSC23170 | 3.42e6 | 3.82e6 | 3.97e6
Gmppb | DRSC12169 | 3.38e6 | 3.79e6 | 3.85e6
CG14384 | DRSC14842 | 3.46e6 | 3.81e6 | 4.03e6
mbt | DRSC20348 | 3.37e6 | 3.70e6 | 3.87e6
mbt | DRSC23020 | 3.50e6 | 4.14e6 | 3.83e6
CG15141 | DRSC02441 | 3.36e6 | 3.83e6 | 3.73e6
CG15141 | DRSC02442 | 3.59e6 | 3.84e6 | 4.31e6
Drep4 | DRSC03408 | 3.61e6 | 4.03e6 | 4.15e6
Cog2 | DRSC16987 | 3.76e6 | 4.47e6 | 4.05e6
CG4949 | DRSC19926 | 3.97e6 | 4.55e6 | 4.48e6
CG11436 | DRSC17783 | 3.40e6 | 3.84e6 | 3.89e6
CG42531 | DRSC05318 | 3.75e6 | 4.05e6 | 4.30e6
CG12025 | DRSC08230 | 3.53e6 | 4.00e6 | 4.00e6
